Results reported in patent publication US20210009993A1 (ROCHE DIAGNOSTICS OPERATIONS, published 2021).
Results are given in words; binding and its absence hold for the method and conditions named. Some binding calls cover weakened binding; strength is not graded here.

Experiments:
[1] = molecular target: T1, human cardiac troponin T (cTnT) (human, UniProt P45379 2-298); assay: Elecsys ECL sandwich immunoassay; ruthenylated IgG as detection antibody, cTnT calibrators against blank
T1 construct: also called Recombinant human TnT (Roche, 37 kDa)

[2] = molecular target: T1, human cardiac troponin T (cTnT); assay: Elecsys ECL sandwich immunoassay; ruthenylated IgG as detection antibody, Calibrator 1 against blank
[3] = molecular target: T1, human cardiac troponin T (cTnT); assay: Elecsys sandwich ECL immunoassay (Troponin T hs protocol, Cobas E170). Ruthenylated IgG is the detection antibody, with a biotinylated capture antibody on streptavidin beads. Calibrator 1 of the cTnT assay against a Diluent Multi Assay blank.
[4] = molecular target: T1, human cardiac troponin T (cTnT); assay: SPR (Biacore), Table 3

Row | Binder | binding [1] | binding [2] | binding [3] | binding [4]
1 | full length murine/human chimeric anti-cTnT antibody comprising the mutations of combination 12 (Y34I, F60W, Y104F), ruthenium conjugate (antibody, V domains shown) VH: EVQLQQSGPELVKPGASVKMSCKASGYTFTDYIMKWVKQSHGKSLEWIGDINPNNGETWYNQKFKDKATLTVDKSSSTAYMQLNSLTSEDSAVYYCATRVFDFWGQGTTLTVSS VL: DIVLTQSPASLAVSLGQRATISCKASQSVDYDGTSYMNWFQQKAGQPPKRLIYAASNLESGIPARFSGRGSGTDFALNIHPVEEEDAATYYCQQSNEDPYTFGGGTKLEIKR | binds | binds | binds | 
2 | anti-cTnT Fab fragment, CDR combination 12 (Y34I, F60W, Y104F) (Fab, V domains shown) VH: EVQLQQSGPELVKPGASVKMSCKASGYTFTDYIMKWVKQSHGKSLEWIGDINPNNGETWYNQKFKDKATLTVDKSSSTAYMQLNSLTSEDSAVYYCATRVFDFWGQGTTLTVSS VL: DIVLTQSPASLAVSLGQRATISCKASQSVDYDGTSYMNWFQQKAGQPPKRLIYAASNLESGIPARFSGRGSGTDFALNIHPVEEEDAATYYCQQSNEDPYTFGGGTKLEIKR |  |  |  | binds
3 | full length murine/human chimeric anti-cTnT antibody comprising the mutations of combination 11 (Y34I, F60W, V101Y), ruthenium conjugate (antibody, V domains shown) VH: EVQLQQSGPELVKPGASVKMSCKASGYTFTDYIMKWVKQSHGKSLEWIGDINPNNGETWYNQKFKDKATLTVDKSSSTAYMQLNSLTSEDSAVYYCATRYFDYWGQGTTLTVSS VL: DIVLTQSPASLAVSLGQRATISCKASQSVDYDGTSYMNWFQQKAGQPPKRLIYAASNLESGIPARFSGRGSGTDFALNIHPVEEEDAATYYCQQSNEDPYTFGGGTKLEIKR | binds |  |  | 
